Source: PubChem BioAssay AID1224830 (NIAID, 2016)

- Assay: 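Genes whose knock-down alters the TNF-alpha reporter response to LPS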 (primary screen)
- System: human THP-1 monocytic leukaemia cells, TNF dual-luciferase reporter clone, PMA-differentiated to macrophage-like cells
- Knock-down reagent: siRNA pool against human genes, 50 nM
- Time to read-out: LPS for 4 h, given about 3 days after siRNA transfection
- Treatment: bacterial LPS (TLR4 ligand), 10 ng/ml
- Measurement: 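Ratio of firefly to renilla light, scaled to the plate median and expressed as a robust z-score per replicate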
- Reading the numbers: TNF reporter robust z-score: higher = stronger TNF reporter response to LPS
- Active means: 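Each well counts as active if its z-score is over 2.8 or under -1.5; controls are left without a call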
The deposit covers about 18,000 reagents; below is a random part of them. About 2,900 of them (16%) count as active. 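Calls are made per well; low scores hint the gene aids the LPS response, high scores that it dampens it.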 Entries without a mark were called inactive. Repeated entries: four replicate wells of each siRNA pool.

The opening 5 records as a preview:
| Target gene | TNF reporter robust z-score |
| --- | --- |
| ALPP | -0.31 |
| ALPP | -0.51 |
| ALPP | -0.13 |
| ALPP | 0.28 |
| SULT1A3 | -1.09 |

Results, repeating the preview:
| Target gene | TNF reporter robust z-score |
| --- | --- |
| ALPP | -0.31 |
| ALPP | -0.51 |
| ALPP | -0.13 |
| ALPP | 0.28 |
| SULT1A3 | -1.09 |
| SULT1A3 | -0.66 |
| SULT1A3 | -1.25 |
| SULT1A3 | -0.52 |
| ZHX1 | 1.52 |
| ZHX1 | 0.11 |
| ZHX1 | 1.95 |
| ZHX1 | 0.3 |
| SLC25A37 | -0.77 |
| SLC25A37 | -0.3 |
| SLC25A37 | -0.73 |
| SLC25A37 | 0.08 |
| DCTN4 | 0.68 |
| DCTN4 | -0.7 |
| DCTN4 | -0.85 |
| DCTN4 | -0.88 |
| DLGAP2 | -0.83 |
| DLGAP2 | -0.51 |
| DLGAP2 | -0.3 |
| DLGAP2 | 0.32 |
| LYRM9 | -0.5 |
| LYRM9 | -0.72 |
| LYRM9 | -1.15 |
| LYRM9 | -0.62 |
| MGAM | -1.02 |
| MGAM | -0.42 |
| MGAM | -0.3 |
| MGAM | 0.52 |
| SLC13A4 | -1.8 (active) |
| SLC13A4 | -1.78 (active) |
| SLC13A4 | -2.13 (active) |
| SLC13A4 | -1.64 (active) |
| GPR174 | -1.08 |
| GPR174 | -0.66 |
| GPR174 | -0.83 |
| GPR174 | -0.73 |
| VCPIP1 | -0.06 |
| VCPIP1 | 0.17 |
| VCPIP1 | -0.38 |
| VCPIP1 | 0.06 |
| C1orf162 | -1.23 |
| C1orf162 | -1.05 |
| C1orf162 | -1.68 (active) |
